Assay results as given in PubChem BioAssay AID1487 (National Center for Advancing Translational Sciences (NCATS), 2009).
“And” between values parts separate entries of the source, which are not always exact repeats. Equal entries are not always repeated. The list shows a part of the results. Further columns of the screen follow, without active or inactive calls. Compounds called inactive in the main read-out are mostly missing here. Potencies come from curve fits of mixed quality, noted in brackets.

Assay: qHTS Assay for Modulators of Lamin A Splicing
Conditions: HeLa LMNA splicing GFP/RFP minigene ratio, 48 h
Summary of the method: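 Read-out is the ratio of GFP to DsRed2 object intensity, acquired by 488 nm laser-scanning cytometry on HeLa lamin A-EGFP minigene reporter cells. Compound incubation 48 hrs at 37 °C in Opti-MEM with 2% FBS; DMSO 0.5% final.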

[1] = measured here: GFP splicing reporter channel
[2] = measured here: RFP viability control channel

Cc1nc2sccn2c(=O)c1CCN1CCC(=C(c2ccc(F)cc2)c2ccc(F)cc2)CC1
AC50 [1]: 8.91 µM [falling, partial curve, poor fit] and 35.5 µM [rising, single point] | AC50 [2]: 8.91 µM [falling, partial curve, poor fit] and 35.5 µM [falling, single point]

COc1ccc(/C=N/c2oc(-c3ccccc3)cc2C#N)cc1
AC50 [2]: 11.2 µM [rising, partial curve]

O=C1c2ccccc2OC2(C=Cc3ccccc3O2)N1Cc1ccccc1 (stereo not given)
AC50 [1]: 17.8 µM [falling, single point]

COc1cc(NC(=O)Cn2ncc(Cl)c(Cl)c2=O)c(C)cc1[N+](=O)[O-]
AC50 [2]: 35.5 µM [rising, single point]

COc1ccccc1/C=C(/CC(=O)NCc1ccc(F)cc1)c1nc2ccccc2s1
AC50 [1]: 11.2 µM [rising, partial curve] | AC50 [2]: 17.8 µM [rising, single point]

Nc1nnc(SCC(=O)Nc2ccc3nc(SCC(=O)Nc4ccccc4)sc3c2)s1
AC50 [2]: 0.794 µM [rising, full curve, poor fit]

CCOC(=O)c1cc(C#N)c(N2CCCC2)nc1-c1ccccc1
AC50 [1]: 12.6 µM [rising, single point] | AC50 [2]: 14.1 µM [rising, single point]

CC(=O)c1ccc(NC(=O)C(C)n2nc(-c3ccccc3)c3cc(Cl)ccc32)cc1 (stereo not given)
AC50 [2]: 22.4 µM [rising, single point]

CCCCCCCCN=C1NC(=O)CS1
AC50 [2]: 3.98 µM [falling, partial curve]

CC(=O)c1ccc(Oc2cc(C)nc(NCc3ccccc3)n2)cc1
AC50 [1]: 12.6 µM [rising, single point] | AC50 [2]: 15.8 µM [rising, single point]

CC(=O)[C@H]1CC[C@H]2[C@@H]3C=CC4=CC(=O)CC[C@@]4(C)[C@H]3CC[C@]12C
AC50 [1]: 14.1 µM [rising, single point]

Cc1ccc2[nH]c3c(c2c1)CCNC3=O
AC50 [2]: 35.5 µM [falling, single point]

O=C(COC(=O)C1CC(=O)N(Cc2ccccc2)C1)Nc1ccc(Cl)cc1F (stereo not given)
AC50 [1]: 0.0316 µM [falling, full curve, poor fit]

Clc1ccccc1Nc1c2c(nc3ncnn13)CCC2
AC50 [1]: 14.1 µM [rising, single point] | AC50 [2]: 35.5 µM [rising, single point]

CC(C)(C)NC(=S)NNC(=O)c1cccc(Br)c1
AC50 [1]: 6.31 µM [rising, partial curve]
